PubChem BioAssay AID1508597 – Cure First – 2020
Purpose: 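Knock-downs altering ovarian cancer cell survival with or without PARP inhibitor rucaparib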 (primary screen). Cell system: human ovarian carcinoma lines grown from tumours: OCI-P5x (papillary serous) and OCI-C5x (clear cell). Reagent: siRNA pool against human genes, 1.25 pmol siRNA per well. Duration: 72 h or 96 h, depending on the cell culture. Challenge: rucaparib 20 µM (about IC30) or vehicle, present until read-out. Measured: 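Luminescent ATP-based viability assay read 72 or 96 h after transfection, depending on culture, given as normalised percent viability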. Direction: viability, normalised: higher = more viable cells remaining. Hit rule: 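a well counts as a hit if its normalised viability is under 80 percent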. Calls: active = viability under 80%; inactive = viability 80% or more.
This is one part, drawn at random, of about 2,100 reagents tested. 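Calls flag viability under 80% in either arm, not effects specific to rucaparib; the reference for percent is not stated.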 Unmarked entries are inactive. Reagent sequences are not shown. The record does not give: the 100% reference.

RARA, rucaparib or vehicle Rucaparib, cell line OCI-C5x (clear cell), technical replicate 1
- viability, normalised (%): 49 (active)

RARA, rucaparib or vehicle Rucaparib, cell line OCI-C5x (clear cell), technical replicate 2
- viability, normalised (%): 34.3 (active)

RARA, rucaparib or vehicle Rucaparib, cell line OCI-C5x (clear cell), technical replicate 3
- viability, normalised (%): 35.3 (active)

RARA, rucaparib or vehicle Rucaparib, cell line OCI-P5x (serous), technical replicate 1
- viability, normalised (%): 50.7 (active)

RARA, rucaparib or vehicle Rucaparib, cell line OCI-P5x (serous), technical replicate 2
- viability, normalised (%): 55.8 (active)

RARA, rucaparib or vehicle Rucaparib, cell line OCI-P5x (serous), technical replicate 3
- viability, normalised (%): 43.8 (active)

RARA, rucaparib or vehicle Vehicle, cell line OCI-C5x (clear cell), technical replicate 1
- viability, normalised (%): 46.4 (active)

RARA, rucaparib or vehicle Vehicle, cell line OCI-C5x (clear cell), technical replicate 2
- viability, normalised (%): 35.4 (active)

RARA, rucaparib or vehicle Vehicle, cell line OCI-C5x (clear cell), technical replicate 3
- viability, normalised (%): 45.2 (active)

RARA, rucaparib or vehicle Vehicle, cell line OCI-P5x (serous), technical replicate 1
- viability, normalised (%): 57.5 (active)

RARA, rucaparib or vehicle Vehicle, cell line OCI-P5x (serous), technical replicate 2
- viability, normalised (%): 72 (active)

RARA, rucaparib or vehicle Vehicle, cell line OCI-P5x (serous), technical replicate 3
- viability, normalised (%): 82.6
